Laboratory results: paper PMC8009681
These are yes or no findings as the source states them, for the method shown. Binding seen in cells or lysates may run through a third protein. These calls come from enrichment with a bait or labelling near it, and not all partners need be listed.

Amino acid sequences for entries named in this document (tags omitted). A change or cut given only in a name is not applied to a line headed by its entry.
UniProt Q9LXU1: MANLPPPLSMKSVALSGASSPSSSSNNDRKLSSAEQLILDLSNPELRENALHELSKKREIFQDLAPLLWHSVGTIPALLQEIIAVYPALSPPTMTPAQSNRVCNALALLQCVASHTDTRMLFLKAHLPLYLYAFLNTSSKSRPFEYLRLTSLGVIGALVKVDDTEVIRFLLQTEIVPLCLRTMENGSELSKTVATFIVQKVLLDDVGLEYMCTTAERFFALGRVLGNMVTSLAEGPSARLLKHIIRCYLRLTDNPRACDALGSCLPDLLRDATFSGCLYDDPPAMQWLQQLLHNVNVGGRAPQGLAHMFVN

Biological target: HA-YFP-NOT9B (Arabidopsis NOT9Box lines) (Arabidopsis thaliana) (UniProt Q9LXU1)
Assay: affinity purification with mass spectrometry; Arabidopsis seedlings (NOT9Box line 21c or YFP-HA), 4 days dark, FR light 5 hr; αGFP MicroBeads, IP buffer with 150 mM NaCl; LC-MS/MS of eluates

B1: phyA (endogenous) (protein, UniProt P14712 1-1122)
chain: MSGSRPTQSSEGSRRSRHSARIIAQTTVDAKLHADFEESGSSFDYSTSVRVTGPVVENQPPRSDKVTTTYLHHIQKGKLIQPFGCLLALDEKTFKVIAYSENASELLTMASHAVPSVGEHPVLGIGTDIRSLFTAPSASALQKALGFGDVSLLNPILVHCRTSAKPFYAIIHRVTGSIIIDFEPVKPYEVPMTAAGALQSYKLAAKAITRLQSLPSGSMERLCDTMVQEVFELTGYDRVMAYKFHEDDHGEVVSEVTKPGLEPYLGLHYPATDIPQAARFLFMKNKVRMIVDCNAKHARVLQDEKLSFDLTLCGSTLRAPHSCHLQYMANMDSIASLVMAVVVNEEDGEGDAPDATTQPQKRKRLWGLVVCHNTTPRFVPFPLRYACEFLAQVFAIHVNKEVELDNQMVEKNILRTQTLLCDMLMRDAPLGIVSQSPNIMDLVKCDGAALLYKDKIWKLGTTPSEFHLQEIASWLCEYHMDSTGLSTDSLHDAGFPRALSLGDSVCGMAAVRISSKDMIFWFRSHTAGEVRWGGAKHDPDDRDDARRMHPRSSFKAFLEVVKTRSLPWKDYEMDAIHSLQLILRNAFKDSETTDVNTKVIYSKLNDLKIDGIQELEAVTSEMVRLIETATVPILAVDSDGLVNGWNTKIAELTGLSVDEAIGKHFLTLVEDSSVEIVKRMLENALEGTEEQNVQFEIKTHLSRADAGPISLVVNACASRDLHENVVGVCFVAHDLTGQKTVMDKFTRIEGDYKAIIQNPNPLIPPIFGTDEFGWCTEWNPAMSKLTGLKREEVIDKMLLGEVFGTQKSCCRLKNQEAFVNLGIVLNNAVTSQDPEKVSFAFFTRGGKYVECLLCVSKKLDREGVVTGVFCFLQLASHELQQALHVQRLAERTAVKRLKALAYIKRQIRNPLSGIMFTRKMIEGTELGPEQRRILQTSALCQKQLSKILDDSDLESIIEGCLDLEMKEFTLNEVLTASTSQVMMKSNGKSVRITNETGEEVMSDTLYGDSIRLQQVLADFMLMAVNFTPSGGQLTVSASLRKDQLGRSVHLANLEIRLTHTGAGIPEFLLNQMFGTEEDVSEEGLSLMVSRKLVKLMNGDVQYLRQAGKSSFIITAELAAANK
Q: Which binding does the source give for B1 here?
A: Its binding is “binds”.
